From paper PMC9192689
These are yes or no findings as the source states them, for the method shown. Binding seen in cells or lysates may run through a third protein. Some results given as binding are weak or reduced against the parent protein; the word gives no strength.

Amino acid sequences for entries named in this document (tags omitted).
UniProt Q13148: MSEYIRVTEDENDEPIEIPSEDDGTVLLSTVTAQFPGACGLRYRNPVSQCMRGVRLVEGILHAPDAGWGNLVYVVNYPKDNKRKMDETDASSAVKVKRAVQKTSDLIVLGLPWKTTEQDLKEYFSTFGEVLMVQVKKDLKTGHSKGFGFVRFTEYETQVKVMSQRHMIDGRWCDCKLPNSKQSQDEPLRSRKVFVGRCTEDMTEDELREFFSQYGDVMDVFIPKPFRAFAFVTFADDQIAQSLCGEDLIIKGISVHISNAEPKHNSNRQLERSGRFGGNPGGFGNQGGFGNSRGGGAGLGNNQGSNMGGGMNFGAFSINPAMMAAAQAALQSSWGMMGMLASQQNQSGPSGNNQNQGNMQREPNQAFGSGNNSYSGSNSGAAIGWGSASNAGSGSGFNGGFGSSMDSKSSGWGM
UniProt P37198: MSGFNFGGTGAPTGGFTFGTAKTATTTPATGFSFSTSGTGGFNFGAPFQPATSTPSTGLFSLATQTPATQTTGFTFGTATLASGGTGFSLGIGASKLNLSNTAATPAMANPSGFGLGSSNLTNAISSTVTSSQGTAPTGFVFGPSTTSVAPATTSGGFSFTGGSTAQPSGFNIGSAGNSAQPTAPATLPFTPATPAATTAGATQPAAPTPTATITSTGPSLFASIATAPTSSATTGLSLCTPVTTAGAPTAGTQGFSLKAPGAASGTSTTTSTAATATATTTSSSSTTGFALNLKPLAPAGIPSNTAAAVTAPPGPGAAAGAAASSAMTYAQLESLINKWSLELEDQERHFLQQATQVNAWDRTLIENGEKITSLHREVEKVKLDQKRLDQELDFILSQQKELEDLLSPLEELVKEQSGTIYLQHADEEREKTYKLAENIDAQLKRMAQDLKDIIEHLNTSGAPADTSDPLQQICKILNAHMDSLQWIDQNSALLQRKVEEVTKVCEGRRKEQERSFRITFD

Molecular target: eGFP-TDP-43 (wild type) (UniProt Q13148)
Test: co-IP; HEK293 cells co-transfected with mRuby-NUP62 and eGFP-TDP-43 (WT or ΔNLS) for 24 h; lysate incubated with GFP-Trap Magnetic Agarose beads 3 h at 4 °C; washed three times in 10 mM Tris/Cl pH 7.5, 150 mM NaCl, 0.5 mM EDTA; immunoblot for NUP62 and TDP-43

**Q.** With mRuby-NUP62 (from UniProt P37198 1-522) as the substance, how does the binding read?
**A.** The binding was “binds”.
